From paper PMC5945599

Molecular target: T1, full-length Flag-tagged human OMA1 (human) (UniProt Q96E52)
T1 sequence: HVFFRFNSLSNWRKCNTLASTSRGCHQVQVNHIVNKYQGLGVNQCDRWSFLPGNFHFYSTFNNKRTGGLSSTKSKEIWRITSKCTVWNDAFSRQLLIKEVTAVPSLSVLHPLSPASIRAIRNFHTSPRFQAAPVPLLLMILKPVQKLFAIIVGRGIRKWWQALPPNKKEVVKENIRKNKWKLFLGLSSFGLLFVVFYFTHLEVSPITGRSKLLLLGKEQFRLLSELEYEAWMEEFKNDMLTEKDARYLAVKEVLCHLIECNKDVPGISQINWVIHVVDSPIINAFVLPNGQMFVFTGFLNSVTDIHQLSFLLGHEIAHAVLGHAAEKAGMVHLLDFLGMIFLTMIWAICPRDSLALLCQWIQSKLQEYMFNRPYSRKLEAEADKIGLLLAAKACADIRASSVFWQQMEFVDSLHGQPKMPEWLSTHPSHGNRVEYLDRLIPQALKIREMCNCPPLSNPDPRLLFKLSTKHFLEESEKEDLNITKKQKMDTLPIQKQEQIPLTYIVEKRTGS
Test: co-IP; HEK293T cells transfected with 3 ug Flag-OMA1 plasmid for 48 h; lysis buffer 50 mM Tris-HCl pH 7.4, 150 mM NaCl, 0.1% NP-40; IP with monoclonal anti-flag M2 antibody or normal mouse IgG at 4 °C overnight, protein A/G beads; immunoblot with anti-GSK3 and Flag antibodies

binding: binds
Substance: endogenous GSK3 (human (endogenous in HEK293T)) (enzyme)

These are yes or no findings as the source states them, for the method shown. Binding seen in cells or lysates may run through a third protein. A result given as binding can be weak or reduced; the word gives no strength. Sequences can lack the tags named with a protein.
